Reference: PubChem BioAssay AID2685 (National Center for Advancing Translational Sciences (NCATS), 2010)
Some of the results follow. The main result of the screen is listed elsewhere. These columns were measured beside it and carry no call. Most of these compounds were active or inconclusive in the main read-out, so they are no random draw. Words in brackets tell the shape of the fitted curve; partial curves, single points and poor fits give uncertain potencies.

Test: qHTS Assay for Lipid Storage Modulators in Drosophila S3 Cells;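 for cell number change: cells counted by Cell Tracker Red CMTPX staining in the red channel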
Details: BODIPY lipid droplet fluorescence, 18-24 h; for cell number change: measured here: cell count max response, cells fed with added oleic acid
Outline: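 Laser-scanning cytometry quantifies lipid droplet accumulation (500–530 nm total intensity; droplet/cell object ratio) in oleic acid-fed (400 uM added) Drosophila S3 cells treated with a concentration series. 20 uM Triacsin C defined 100% inhibition.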

[1] = measured here: cell number channel AC50, cells fed with added oleic acid
[2] = measured here: lipid fluorescence (Fed channel) AC50, cells fed with added oleic acid

SMILES | cell number change [%] | AC50 [1] | AC50 [2]
CCOc1ccc(NC(=O)CSC2=NCCN2)cc1 | 16.7 | 4.61 µM [falling, single point] | 
O=C(CN1CCN(S(=O)(=O)N2CCCCC2)CC1)Nc1cc(Cl)ccc1Cl | 32 | 5.8 µM [rising, full curve, poor fit] | 
O=C(CNC(=S)N(Cc1ccccc1F)C1CCCCC1)NCCCN1CCOCC1 | -67.7 | 0.82 µM [falling, full curve] | 13 µM [falling, partial curve, poor fit]
Cc1ccc(C=C2C(=O)c3ccccc3C2=O)s1 |  | 6.51 µM [rising, single point] | 
N#Cc1sc2nc3c(c(-c4ccco4)c2c1N)CCCC3 | 88.8 | 29.1 µM [rising, single point] | 2.59 µM [rising, single point]
O=C(CN1C(=O)NC2(CCc3ccccc32)C1=O)c1ccc(Cl)cc1 (stereo unspecified) | 17.4 |  | 32.6 µM [rising, single point]
O=C(Nc1ccc(C(F)(F)F)cc1)N1CCN(c2ccnc3cc(Cl)ccc23)CC1 | 12 | 0.731 µM [rising, single point] | 8.2 µM [falling, single point]
O=[N+]([O-])c1ccc(CNCc2cc(Cl)ccc2O)cc1 | -40 | 9.2 µM [falling, partial curve] | 0.164 µM [rising, full curve]
Cc1cc(C(=O)N2CCN(c3cccc(Cl)c3)CC2)c(C)o1 | 105 | 14.6 µM [rising, partial curve] | 1.3 µM [rising, full curve]
Cn1c(NC(=O)Cc2ccc(F)cc2)cc(=O)n(C)c1=O | 54.1 | 29.1 µM [rising, single point] | 
Cc1ccc2c(c1)c(-c1csc(N)n1)c(C)n2C | 31.1 | 0.184 µM [rising, full curve, poor fit] | 29.1 µM [rising, single point]
CNC(=O)c1ccsc1NC(=O)C1CCCN1S(=O)(=O)c1cccs1 (stereo unspecified) | 78.3 | 1.64 µM [rising, full curve] | 
CC(C)(C)NC(=O)CN(C(=O)Cn1nnc(-c2ccc(Cl)cc2)n1)C1CCN(Cc2ccccc2)CC1 | -24.5 |  | 29.1 µM [falling, single point]
Cc1ccc(C)c(NC(=O)CSc2nnc([C@@H](N)Cc3ccccc3)o2)c1 |  |  | 0.0058 µM [rising, full curve]
CC1(C)C(=O)OC(/C=C\c2cccc([N+](=O)[O-])c2)C(C)(C)C1=O (stereo unspecified) | 6.62 |  | 
COc1ccccc1CNC(=O)c1cnn2c(C(F)F)cc(C)nc12 |  |  | 14.6 µM [rising, partial curve]
Cn1c(CSc2ncccn2)nnc1SCC(=O)N1CCCC1 | 5.8 | 0.13 µM [rising, full curve, poor fit] | 
O=C(O)c1ccc(CSc2nnc(-c3ccc(Cl)cc3)o2)cc1 | 12.2 |  | 0.0651 µM [rising, full curve, poor fit]
CC1CN(C(=O)CSc2ncnc3sccc23)CC(C)O1 (stereo unspecified) | -0.334 |  | 14.6 µM [rising, single point]
COc1ccc(NC(=O)COC(=O)C2C3CC4OC(=O)C2C4C3)cc1 (stereo unspecified) | -8.97 |  | 0.184 µM [rising, full curve, poor fit]

SMILES | cell number change [%] | AC50 [1] | AC50 [2]
Cc1ccc(C)n1/N=C1/NC(=O)CS1 | 8.08 |  | 
C#CC[N+](C)(C)CCCCCCCC | -11.4 | 6.51 µM [rising, partial curve, poor fit] | 
COc1cccc(/C=N/NC(=O)c2cc3cc([N+](=O)[O-])ccc3s2)c1O | -73.7 | 29.1 µM [falling, single point] | 
O=C1C(=C(O)c2ccccc2)C(=O)c2ccccc21 | -27.5 |  | 29.1 µM [falling, single point]
CCN(C(=O)Cn1c(=O)oc2cc(S(=O)(=O)N3CCCC3)ccc21)c1ccc(OC)cc1 | 6.89 |  | 6.51 µM [rising, single point]
O=C1C2=C(Nc3ccccc3SC2c2ccco2)c2ccccc21 (stereo unspecified) | -33.4 | 29.1 µM [falling, single point] | 
Cc1ccc2[nH]c(SCC(=O)N3CCOCC3)nc2c1C | 38.5 | 10.3 µM [rising, partial curve, poor fit] | 6.51 µM [rising, single point]
O=C(N/N=C/C(Cl)=C\c1ccccc1)c1cnccn1 | 23.1 |  | 
c1ccc(CCN2CCN=C2Nc2ccccc2)cc1 | -11.7 |  | 0.461 µM [falling, full curve]
COC(=O)c1ccc(C23CC4(C2)[C@H](CN(Cc2cccnc2)[C@@H]4c2ccccc2)C3c2ccc(Cl)nc2)cc1 (stereo partly specified) | 12.3 |  | 2.59 µM [rising, full curve, poor fit]
CC(C)c1ccc(S(=O)(=O)N2CCN(C(=O)c3ccc(N4CCCC4)c([N+](=O)[O-])c3)CC2)cc1 | 10.3 |  | 0.58 µM [falling, single point]
CCc1ccc(N(CC(=O)NC)S(C)(=O)=O)cc1 | -14.8 |  | 14.6 µM [falling, partial curve]
CCOc1ncccc1C(=O)OCC(=O)NC1CCCCCC1 |  | 0.231 µM [rising, full curve] | 
CC(C)N(Cc1ccccc1)C(=O)COC(=O)c1cnccn1 | -46 | 0.206 µM [falling, full curve, poor fit] | 
O=C1CC(C(=O)N2CCN(c3ccccc3O)CC2)CN1Cc1ccccc1 (stereo unspecified) | -9.93 |  | 10.3 µM [rising, partial curve]
Nc1ccc2nc(CCc3ccccc3)[nH]c2c1 | 9.5 |  | 
CCN(CC)C(=O)CSc1nnc([C@@H](N)Cc2ccccc2)o1 | -19.3 |  | 3.66 µM [falling, single point]
COc1ccc(Cc2nc3ccc(C(=O)NCCn4cccn4)cc3o2)cc1 | 19 |  | 29.1 µM [rising, single point]
COc1ccc(NC(=S)Nc2cccc(Cl)c2Cl)cc1OC |  | 2.06 µM [rising, partial curve, poor fit] | 

Part of the list above in order of SMILES length, falling.
SMILES | cell number change [%] | AC50 [1] | AC50 [2]
CC(C)(C)NC(=O)CN(C(=O)Cn1nnc(-c2ccc(Cl)cc2)n1)C1CCN(Cc2ccccc2)CC1 | -24.5 |  | 29.1 µM [falling, single point]
CCN(CC)C(=O)CSc1nnc([C@@H](N)Cc2ccccc2)o1 | -19.3 |  | 3.66 µM [falling, single point]
O=C1C2=C(Nc3ccccc3SC2c2ccco2)c2ccccc21 (stereo unspecified) | -33.4 | 29.1 µM [falling, single point] | 
